Results reported in the supplement of paper PMC11006884.
This is a selection; strong and weak results do not stand in their true shares.

By UniProt entry, the sequences of proteins in these tests, tags left out. Where a name states a change or a piece, a line headed by the entry shows the natural chain unless it says otherwise.
UniProt P40855: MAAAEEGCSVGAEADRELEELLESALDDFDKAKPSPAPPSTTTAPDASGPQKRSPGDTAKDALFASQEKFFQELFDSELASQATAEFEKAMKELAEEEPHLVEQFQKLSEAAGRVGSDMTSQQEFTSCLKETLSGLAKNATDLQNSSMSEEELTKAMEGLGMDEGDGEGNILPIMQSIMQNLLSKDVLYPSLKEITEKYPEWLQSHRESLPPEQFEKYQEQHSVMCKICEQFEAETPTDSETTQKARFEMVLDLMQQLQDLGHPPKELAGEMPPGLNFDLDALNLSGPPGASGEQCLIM
UniProt P35219: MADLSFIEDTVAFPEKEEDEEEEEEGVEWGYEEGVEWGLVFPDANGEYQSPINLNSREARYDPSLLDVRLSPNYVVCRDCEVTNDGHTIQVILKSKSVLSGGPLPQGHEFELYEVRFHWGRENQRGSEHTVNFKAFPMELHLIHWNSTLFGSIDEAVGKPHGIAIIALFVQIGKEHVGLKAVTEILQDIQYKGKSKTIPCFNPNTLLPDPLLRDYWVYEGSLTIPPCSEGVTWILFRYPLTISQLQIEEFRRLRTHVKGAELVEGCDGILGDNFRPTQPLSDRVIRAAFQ
UniProt P35232: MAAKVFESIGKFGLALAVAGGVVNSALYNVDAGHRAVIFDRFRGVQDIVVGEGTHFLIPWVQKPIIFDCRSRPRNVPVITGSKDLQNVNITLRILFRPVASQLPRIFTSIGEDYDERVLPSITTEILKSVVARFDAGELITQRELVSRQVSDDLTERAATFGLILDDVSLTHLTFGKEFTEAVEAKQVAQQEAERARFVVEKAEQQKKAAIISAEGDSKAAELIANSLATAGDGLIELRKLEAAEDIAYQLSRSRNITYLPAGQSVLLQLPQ
UniProt P42695: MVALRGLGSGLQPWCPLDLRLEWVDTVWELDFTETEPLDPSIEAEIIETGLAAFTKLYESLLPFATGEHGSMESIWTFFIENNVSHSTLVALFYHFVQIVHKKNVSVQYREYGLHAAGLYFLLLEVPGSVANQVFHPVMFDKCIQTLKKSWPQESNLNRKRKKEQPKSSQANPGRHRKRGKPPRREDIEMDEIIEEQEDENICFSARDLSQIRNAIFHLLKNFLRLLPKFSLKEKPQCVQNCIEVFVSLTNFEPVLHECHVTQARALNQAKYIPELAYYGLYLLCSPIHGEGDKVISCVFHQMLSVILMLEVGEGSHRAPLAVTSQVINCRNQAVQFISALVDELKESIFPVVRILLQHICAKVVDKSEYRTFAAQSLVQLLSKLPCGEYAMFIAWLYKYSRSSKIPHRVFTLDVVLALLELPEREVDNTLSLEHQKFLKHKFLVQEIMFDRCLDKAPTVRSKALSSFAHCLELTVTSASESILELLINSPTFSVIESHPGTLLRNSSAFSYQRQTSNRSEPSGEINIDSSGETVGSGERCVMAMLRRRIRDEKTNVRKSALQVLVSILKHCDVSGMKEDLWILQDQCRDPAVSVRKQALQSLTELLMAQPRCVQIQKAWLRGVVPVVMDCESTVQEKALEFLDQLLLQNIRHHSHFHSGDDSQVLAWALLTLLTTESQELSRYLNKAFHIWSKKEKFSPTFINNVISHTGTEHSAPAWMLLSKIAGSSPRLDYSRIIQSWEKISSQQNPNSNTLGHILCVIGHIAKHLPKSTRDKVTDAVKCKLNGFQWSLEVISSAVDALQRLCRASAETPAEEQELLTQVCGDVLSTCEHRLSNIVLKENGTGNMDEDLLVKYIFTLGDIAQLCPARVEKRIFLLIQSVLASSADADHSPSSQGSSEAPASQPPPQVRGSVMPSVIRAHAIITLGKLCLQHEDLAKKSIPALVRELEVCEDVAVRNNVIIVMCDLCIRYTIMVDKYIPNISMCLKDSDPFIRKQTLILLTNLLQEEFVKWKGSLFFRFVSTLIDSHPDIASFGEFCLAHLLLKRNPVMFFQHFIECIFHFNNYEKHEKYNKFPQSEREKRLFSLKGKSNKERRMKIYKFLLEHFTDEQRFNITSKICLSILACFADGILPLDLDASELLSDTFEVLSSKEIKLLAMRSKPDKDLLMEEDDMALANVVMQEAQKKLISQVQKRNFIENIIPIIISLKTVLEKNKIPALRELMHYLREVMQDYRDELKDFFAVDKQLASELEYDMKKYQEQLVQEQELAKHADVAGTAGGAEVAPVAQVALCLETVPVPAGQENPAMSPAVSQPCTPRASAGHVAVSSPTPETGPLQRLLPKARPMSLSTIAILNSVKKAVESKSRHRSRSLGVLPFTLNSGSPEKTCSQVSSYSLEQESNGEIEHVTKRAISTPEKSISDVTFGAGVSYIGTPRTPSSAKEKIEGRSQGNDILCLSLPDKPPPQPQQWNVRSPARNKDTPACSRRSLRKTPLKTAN
UniProt P30626: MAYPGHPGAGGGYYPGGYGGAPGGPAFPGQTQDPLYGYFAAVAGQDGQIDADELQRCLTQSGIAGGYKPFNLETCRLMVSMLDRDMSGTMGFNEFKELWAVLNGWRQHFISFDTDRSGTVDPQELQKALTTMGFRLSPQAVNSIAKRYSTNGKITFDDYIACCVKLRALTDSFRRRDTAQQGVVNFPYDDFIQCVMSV
UniProt P33240: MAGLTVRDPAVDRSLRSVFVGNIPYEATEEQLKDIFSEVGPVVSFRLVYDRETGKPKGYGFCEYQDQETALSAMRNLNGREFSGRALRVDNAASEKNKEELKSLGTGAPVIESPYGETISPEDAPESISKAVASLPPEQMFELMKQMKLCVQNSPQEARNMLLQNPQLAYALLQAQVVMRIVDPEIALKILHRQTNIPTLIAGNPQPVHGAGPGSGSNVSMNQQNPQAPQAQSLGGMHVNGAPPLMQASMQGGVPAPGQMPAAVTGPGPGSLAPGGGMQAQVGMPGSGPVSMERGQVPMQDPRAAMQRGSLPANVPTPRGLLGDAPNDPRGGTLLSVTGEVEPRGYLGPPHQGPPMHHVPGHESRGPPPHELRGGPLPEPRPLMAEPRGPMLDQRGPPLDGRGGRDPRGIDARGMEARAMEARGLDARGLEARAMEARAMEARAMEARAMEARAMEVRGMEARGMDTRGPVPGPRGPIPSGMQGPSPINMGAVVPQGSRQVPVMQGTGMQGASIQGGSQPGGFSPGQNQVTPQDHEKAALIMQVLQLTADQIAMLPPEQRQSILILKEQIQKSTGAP
UniProt P42702: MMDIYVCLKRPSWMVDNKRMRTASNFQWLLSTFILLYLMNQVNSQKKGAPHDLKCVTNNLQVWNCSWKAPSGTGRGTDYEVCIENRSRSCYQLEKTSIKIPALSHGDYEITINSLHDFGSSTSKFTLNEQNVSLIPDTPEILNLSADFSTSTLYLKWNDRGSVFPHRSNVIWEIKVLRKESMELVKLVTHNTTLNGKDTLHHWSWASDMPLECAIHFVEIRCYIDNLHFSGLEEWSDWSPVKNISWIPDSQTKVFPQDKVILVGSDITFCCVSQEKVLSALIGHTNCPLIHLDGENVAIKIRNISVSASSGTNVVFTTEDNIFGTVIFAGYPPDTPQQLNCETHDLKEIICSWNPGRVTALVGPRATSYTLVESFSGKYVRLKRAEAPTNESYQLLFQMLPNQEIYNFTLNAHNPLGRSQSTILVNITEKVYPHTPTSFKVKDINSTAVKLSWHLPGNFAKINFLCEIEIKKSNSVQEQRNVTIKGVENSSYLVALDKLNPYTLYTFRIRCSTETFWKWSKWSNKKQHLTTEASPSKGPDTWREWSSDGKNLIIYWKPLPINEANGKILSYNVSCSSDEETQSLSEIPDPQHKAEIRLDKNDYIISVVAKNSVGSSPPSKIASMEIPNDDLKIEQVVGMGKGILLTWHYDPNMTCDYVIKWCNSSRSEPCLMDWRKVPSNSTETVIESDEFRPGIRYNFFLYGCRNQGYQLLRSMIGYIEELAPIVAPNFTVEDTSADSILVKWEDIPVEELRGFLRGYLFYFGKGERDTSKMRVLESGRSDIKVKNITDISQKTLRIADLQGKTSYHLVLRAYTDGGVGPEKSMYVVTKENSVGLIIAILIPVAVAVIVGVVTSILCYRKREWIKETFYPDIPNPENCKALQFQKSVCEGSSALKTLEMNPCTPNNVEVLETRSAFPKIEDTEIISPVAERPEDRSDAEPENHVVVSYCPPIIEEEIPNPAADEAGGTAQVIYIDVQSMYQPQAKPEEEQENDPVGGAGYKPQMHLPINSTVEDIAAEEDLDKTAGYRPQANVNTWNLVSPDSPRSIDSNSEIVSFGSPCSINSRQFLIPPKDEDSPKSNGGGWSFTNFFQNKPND
UniProt P31939: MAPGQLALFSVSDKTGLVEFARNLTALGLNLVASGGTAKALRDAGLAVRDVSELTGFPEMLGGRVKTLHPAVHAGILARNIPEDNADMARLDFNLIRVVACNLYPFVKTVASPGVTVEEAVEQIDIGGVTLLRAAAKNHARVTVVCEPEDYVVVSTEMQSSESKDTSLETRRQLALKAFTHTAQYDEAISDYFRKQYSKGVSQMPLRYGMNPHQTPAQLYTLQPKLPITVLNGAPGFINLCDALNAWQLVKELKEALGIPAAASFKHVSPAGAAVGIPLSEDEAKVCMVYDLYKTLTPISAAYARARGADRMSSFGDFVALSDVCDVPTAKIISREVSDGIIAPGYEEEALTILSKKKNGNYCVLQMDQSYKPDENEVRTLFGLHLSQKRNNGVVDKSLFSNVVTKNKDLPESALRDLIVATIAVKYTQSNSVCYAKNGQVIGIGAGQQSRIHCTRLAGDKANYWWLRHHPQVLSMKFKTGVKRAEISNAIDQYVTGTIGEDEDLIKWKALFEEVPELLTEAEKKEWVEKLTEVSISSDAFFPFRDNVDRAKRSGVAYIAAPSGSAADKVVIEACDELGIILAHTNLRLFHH
UniProt P30101, whole entry, looked up: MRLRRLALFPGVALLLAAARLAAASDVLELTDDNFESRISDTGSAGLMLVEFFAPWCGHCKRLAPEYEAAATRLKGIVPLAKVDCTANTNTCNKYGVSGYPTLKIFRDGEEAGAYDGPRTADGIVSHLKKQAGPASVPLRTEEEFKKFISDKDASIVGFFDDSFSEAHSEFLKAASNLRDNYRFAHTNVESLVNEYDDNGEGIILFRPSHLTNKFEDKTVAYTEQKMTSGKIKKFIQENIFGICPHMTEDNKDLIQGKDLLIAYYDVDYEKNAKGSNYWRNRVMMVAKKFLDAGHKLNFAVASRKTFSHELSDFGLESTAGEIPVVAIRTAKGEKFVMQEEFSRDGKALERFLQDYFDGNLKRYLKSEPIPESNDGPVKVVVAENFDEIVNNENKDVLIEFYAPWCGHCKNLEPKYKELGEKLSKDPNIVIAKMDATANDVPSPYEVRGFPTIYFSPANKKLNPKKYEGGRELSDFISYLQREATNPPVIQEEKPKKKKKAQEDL
UniProt P40925: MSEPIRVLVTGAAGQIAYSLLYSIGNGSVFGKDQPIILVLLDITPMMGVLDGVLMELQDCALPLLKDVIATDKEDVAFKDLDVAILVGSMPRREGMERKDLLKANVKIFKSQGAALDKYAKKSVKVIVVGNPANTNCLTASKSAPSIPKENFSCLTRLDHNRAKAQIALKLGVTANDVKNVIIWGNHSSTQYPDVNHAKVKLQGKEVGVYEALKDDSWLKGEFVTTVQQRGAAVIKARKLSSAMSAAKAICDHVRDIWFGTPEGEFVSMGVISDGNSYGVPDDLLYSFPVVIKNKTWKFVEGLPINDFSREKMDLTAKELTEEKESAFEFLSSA
UniProt P35637: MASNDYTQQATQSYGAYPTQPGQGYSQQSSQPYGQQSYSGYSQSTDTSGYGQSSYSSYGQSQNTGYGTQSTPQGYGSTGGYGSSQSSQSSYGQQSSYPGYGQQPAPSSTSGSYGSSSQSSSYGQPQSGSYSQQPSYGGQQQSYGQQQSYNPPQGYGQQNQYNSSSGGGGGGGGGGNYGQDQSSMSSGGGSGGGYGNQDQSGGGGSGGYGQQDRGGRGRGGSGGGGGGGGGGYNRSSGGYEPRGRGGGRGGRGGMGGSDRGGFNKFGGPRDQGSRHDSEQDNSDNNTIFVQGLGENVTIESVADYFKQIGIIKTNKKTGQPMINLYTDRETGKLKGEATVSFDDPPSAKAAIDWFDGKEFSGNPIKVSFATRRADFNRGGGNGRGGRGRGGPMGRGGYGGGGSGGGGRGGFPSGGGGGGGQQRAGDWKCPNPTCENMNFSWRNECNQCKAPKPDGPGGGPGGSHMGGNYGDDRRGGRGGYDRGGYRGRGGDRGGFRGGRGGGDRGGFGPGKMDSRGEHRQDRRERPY

compound: COC(=O)C#Cc1ccccc1 [methyl 3-phenylpropiolate]; experiment: log2 ratio of iodoacetamide-alkyne labeling of the cysteine site, DMSO over compound (competition); higher = stronger covalent engagement of the cysteine by the compound, active = 1 or more; conditions: 500 µM; treatment time 1 h; system: HEK293T cell lysate
Procedure, shortened: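 Three replicates, each with duplicate channels, were prepared from HEK293T lysate (2 mg/mL) treated with vehicle or electrophile at 500 µM for 1 h at ambient temperature. Iodoacetamide alkyne was then applied for 1 h, and samples were clicked to sCIP-TMT reagents, pooled, trypsin-digested overnight at 37 °C, enriched on streptavidin, acid-eluted and analysed on Orbitrap Eclipse LC-MS/MS with FAIMS, with FragPipe quantification. The log2 competition ratio per cysteine is the mean control-channel divided by the mean compound-channel reporter intensity. Cysteines quantified in only one replicate were left out.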

log2 ratio of iodoacetamide-alkyne labeling, inactive:
UniProt P40855_C128 0.285
CTNNA1 C461 (UniProt P35221) 0.32
CA8 C266 (UniProt P35219) 0.035
PHB C69 (UniProt P35232) 0.167
MTOR C674 (UniProt P42345) 0.199
NCAPD3 C1316 (UniProt P42695) 0.714
SRI C194 (UniProt P30626) -0.125
LRPPRC C208 (UniProt P42704) 0.123
CSTF2 C62 (UniProt P33240) -0.255
LIFR C1061 (UniProt P42702) 0.854
ATIC C101 (UniProt P31939) -0.104
MYH10 C382 (UniProt P35580) 0.27
MCM4 C509 (UniProt P33991) 0.1
PDIA3 C244 (UniProt P30101) -0.0511
MDH1 C251 (UniProt P40925) 0.0342
FUS C433 (UniProt P35637) -0.139

Quoted at random: 2 entries already listed
log2 ratio of iodoacetamide-alkyne labeling, inactive:
ATIC C101 (UniProt P31939) -0.104
CA8 C266 (UniProt P35219) 0.035
